Test results as given in publication PMC8163987.

Biological target: YhcB fused to sequential peptide affinity tag (E. coli) (UniProt P0ADW3)
Test: affinity purification with mass spectrom

B1: YhcB fused to sequential peptide affinity tag (protein, UniProt P0ADW3 1-132)
chain: MTWEYALIGLVVGIIIGAVAMRFGNRKLRQQQALQYELEKNKAELDEYREELVSHFARSAELLDTMAHDYRQLYQHMAKSSSSLLPELSAEANPFRNRLAESEASNDQAPVQMPRDYSEGASGLLRTGAKRD
Q: How did the binding turn out when B1 was run?
A: no binding

Results are given in words; binding and its absence hold for the method and conditions named. In cells and extracts the contact can be indirect. A yes stands for co-enrichment or nearness to the bait. Other partners may have been found. A no says only that the protein was not detected with the bait. Tags and fused reporters may be left off the sequences shown.
